From the supplement of paper PMC10849652
The list shows a part of the results.

Amino acid sequences for entries named in this document (tags omitted). A change or cut given only in a name is not applied to a line headed by its entry.
UniProt Q86WJ1: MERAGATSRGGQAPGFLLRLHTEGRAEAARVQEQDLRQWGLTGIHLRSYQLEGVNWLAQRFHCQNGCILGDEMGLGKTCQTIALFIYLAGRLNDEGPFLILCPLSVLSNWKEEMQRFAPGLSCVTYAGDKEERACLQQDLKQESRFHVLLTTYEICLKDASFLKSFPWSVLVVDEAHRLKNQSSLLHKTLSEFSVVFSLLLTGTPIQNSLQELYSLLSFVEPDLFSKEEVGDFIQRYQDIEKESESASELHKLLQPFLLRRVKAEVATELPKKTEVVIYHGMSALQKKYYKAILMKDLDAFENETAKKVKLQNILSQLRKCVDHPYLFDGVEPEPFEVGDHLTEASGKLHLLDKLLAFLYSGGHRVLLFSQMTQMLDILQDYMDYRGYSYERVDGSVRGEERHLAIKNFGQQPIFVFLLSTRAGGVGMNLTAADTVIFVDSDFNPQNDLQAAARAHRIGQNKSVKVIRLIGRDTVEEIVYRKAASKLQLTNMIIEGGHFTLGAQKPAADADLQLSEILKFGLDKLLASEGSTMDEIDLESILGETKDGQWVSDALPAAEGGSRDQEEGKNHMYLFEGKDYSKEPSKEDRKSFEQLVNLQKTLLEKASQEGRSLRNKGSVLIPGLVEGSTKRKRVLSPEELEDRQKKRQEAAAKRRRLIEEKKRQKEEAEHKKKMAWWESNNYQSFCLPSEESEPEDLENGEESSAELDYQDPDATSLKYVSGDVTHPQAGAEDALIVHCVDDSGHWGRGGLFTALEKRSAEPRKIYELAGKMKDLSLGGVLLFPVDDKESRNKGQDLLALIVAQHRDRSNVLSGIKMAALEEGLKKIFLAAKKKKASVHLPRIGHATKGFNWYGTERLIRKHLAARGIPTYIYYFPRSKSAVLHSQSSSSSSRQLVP
UniProt Q8TDI0: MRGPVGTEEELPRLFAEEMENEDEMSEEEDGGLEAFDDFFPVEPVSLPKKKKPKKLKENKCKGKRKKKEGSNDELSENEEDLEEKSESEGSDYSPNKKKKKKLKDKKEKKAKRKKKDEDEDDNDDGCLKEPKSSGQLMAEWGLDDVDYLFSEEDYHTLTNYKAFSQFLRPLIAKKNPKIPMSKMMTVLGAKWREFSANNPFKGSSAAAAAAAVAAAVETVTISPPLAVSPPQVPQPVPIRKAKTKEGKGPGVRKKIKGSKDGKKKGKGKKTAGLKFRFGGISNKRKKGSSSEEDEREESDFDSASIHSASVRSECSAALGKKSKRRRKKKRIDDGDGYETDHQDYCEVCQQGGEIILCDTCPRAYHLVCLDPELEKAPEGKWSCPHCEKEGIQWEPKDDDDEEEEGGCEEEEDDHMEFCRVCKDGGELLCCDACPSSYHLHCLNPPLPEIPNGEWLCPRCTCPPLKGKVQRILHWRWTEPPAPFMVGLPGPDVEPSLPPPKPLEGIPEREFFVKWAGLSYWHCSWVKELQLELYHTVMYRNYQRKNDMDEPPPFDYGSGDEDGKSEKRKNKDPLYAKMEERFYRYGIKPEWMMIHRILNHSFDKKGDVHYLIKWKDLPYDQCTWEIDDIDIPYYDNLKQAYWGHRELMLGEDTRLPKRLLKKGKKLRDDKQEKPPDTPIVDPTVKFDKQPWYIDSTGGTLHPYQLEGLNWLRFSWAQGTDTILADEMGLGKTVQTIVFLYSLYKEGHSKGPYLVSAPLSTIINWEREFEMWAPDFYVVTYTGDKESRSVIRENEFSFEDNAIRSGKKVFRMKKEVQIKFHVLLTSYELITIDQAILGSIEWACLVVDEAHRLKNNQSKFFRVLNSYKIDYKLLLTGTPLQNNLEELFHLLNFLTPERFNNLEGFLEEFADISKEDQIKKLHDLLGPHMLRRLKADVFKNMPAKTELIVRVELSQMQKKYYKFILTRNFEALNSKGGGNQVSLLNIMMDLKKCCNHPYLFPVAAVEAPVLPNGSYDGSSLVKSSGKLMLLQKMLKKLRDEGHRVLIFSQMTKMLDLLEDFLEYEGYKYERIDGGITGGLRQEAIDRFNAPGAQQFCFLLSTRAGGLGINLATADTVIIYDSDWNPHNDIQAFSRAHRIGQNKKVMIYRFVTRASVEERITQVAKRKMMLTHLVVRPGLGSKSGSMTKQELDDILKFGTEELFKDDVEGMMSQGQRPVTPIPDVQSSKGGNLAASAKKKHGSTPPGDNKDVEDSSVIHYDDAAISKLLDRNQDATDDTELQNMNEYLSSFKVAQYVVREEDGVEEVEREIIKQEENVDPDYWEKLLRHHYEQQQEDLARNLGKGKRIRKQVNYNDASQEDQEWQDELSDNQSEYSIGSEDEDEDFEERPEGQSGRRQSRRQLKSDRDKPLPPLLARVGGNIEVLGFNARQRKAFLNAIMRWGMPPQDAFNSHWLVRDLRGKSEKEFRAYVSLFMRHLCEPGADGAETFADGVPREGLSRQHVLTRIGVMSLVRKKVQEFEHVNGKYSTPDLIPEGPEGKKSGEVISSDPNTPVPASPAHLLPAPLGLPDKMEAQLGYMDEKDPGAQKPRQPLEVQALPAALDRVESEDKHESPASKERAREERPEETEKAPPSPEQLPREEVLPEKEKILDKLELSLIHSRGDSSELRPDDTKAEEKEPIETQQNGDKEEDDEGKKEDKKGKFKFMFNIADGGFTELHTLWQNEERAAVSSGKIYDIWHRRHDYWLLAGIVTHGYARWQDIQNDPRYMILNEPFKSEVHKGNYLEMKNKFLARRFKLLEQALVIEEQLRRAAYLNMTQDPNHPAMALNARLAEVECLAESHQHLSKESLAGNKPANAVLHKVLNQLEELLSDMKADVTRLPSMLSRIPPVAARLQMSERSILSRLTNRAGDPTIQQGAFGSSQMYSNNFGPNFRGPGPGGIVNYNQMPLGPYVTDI
UniProt Q8WYQ3: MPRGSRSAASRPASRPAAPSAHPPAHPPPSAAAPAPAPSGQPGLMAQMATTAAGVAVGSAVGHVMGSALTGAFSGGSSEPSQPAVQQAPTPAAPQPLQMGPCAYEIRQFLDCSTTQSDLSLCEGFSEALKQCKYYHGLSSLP
UniProt Q86XR8: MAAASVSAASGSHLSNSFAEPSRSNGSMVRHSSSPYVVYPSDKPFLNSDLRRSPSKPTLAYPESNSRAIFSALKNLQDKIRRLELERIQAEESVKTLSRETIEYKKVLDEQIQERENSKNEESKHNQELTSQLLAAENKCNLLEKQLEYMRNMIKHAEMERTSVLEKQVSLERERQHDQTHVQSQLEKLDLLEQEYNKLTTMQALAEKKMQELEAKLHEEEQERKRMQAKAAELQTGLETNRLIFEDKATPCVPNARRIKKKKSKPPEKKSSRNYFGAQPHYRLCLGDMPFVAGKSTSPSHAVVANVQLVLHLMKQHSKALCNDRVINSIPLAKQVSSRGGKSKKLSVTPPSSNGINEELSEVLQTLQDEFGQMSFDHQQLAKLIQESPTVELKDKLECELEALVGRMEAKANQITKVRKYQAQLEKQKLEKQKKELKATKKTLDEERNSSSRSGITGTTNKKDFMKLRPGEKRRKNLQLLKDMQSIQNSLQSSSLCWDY
UniProt Q96EP1: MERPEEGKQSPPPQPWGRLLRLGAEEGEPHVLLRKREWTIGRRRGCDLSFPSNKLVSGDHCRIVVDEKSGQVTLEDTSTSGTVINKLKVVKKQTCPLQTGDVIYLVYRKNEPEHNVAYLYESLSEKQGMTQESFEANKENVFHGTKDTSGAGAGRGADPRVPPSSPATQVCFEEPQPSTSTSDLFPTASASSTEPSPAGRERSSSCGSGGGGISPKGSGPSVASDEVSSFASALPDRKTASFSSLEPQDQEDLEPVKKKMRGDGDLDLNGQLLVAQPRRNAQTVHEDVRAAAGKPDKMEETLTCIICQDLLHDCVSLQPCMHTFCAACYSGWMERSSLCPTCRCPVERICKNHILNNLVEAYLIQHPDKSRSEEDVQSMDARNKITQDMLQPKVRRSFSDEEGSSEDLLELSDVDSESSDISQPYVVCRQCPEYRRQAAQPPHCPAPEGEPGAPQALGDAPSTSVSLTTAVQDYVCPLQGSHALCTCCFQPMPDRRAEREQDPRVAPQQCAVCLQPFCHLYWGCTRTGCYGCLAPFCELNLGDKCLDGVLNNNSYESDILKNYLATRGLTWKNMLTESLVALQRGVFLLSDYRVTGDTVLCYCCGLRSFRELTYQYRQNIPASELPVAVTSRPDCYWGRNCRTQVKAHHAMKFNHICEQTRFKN
UniProt Q7L2Z9: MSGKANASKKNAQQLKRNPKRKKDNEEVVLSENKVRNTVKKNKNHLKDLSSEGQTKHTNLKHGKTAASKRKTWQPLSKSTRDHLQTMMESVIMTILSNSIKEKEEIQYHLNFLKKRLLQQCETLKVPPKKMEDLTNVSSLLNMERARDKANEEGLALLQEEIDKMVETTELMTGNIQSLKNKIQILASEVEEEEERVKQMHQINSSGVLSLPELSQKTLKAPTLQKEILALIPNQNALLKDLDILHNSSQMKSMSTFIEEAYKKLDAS
UniProt Q92903: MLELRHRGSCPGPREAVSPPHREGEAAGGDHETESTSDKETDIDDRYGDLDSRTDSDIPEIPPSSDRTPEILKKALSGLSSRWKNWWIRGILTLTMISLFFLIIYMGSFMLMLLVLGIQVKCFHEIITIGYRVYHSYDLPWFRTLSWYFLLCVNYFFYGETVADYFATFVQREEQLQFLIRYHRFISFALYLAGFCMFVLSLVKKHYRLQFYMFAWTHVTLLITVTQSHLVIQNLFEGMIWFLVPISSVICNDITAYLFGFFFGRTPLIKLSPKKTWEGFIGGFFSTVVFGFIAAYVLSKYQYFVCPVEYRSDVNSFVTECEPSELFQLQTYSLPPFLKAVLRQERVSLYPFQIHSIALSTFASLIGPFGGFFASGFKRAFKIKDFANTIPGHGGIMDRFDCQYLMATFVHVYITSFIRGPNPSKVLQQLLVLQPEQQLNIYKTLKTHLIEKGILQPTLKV
UniProt Q86X02: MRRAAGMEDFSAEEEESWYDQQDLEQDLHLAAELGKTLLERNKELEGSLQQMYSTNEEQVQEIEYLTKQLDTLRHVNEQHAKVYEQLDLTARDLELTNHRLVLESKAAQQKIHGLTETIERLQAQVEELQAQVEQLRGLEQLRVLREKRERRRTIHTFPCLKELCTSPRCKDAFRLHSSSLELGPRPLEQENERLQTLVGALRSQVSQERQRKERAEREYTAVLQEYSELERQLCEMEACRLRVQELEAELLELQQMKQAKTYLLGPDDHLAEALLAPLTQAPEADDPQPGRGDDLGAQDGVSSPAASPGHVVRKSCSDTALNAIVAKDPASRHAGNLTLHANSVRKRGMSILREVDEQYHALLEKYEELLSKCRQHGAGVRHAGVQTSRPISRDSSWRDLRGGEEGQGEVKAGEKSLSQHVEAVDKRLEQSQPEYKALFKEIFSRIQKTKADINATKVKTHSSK
UniProt Q7Z7K6: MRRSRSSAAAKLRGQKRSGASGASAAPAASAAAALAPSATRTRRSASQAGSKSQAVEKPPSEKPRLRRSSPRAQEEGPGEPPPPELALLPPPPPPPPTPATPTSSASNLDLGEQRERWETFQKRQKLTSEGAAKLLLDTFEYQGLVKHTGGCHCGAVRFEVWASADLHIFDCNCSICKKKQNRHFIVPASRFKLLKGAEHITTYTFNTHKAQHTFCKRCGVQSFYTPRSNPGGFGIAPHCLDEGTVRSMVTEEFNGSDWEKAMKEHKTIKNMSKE
UniProt P19022: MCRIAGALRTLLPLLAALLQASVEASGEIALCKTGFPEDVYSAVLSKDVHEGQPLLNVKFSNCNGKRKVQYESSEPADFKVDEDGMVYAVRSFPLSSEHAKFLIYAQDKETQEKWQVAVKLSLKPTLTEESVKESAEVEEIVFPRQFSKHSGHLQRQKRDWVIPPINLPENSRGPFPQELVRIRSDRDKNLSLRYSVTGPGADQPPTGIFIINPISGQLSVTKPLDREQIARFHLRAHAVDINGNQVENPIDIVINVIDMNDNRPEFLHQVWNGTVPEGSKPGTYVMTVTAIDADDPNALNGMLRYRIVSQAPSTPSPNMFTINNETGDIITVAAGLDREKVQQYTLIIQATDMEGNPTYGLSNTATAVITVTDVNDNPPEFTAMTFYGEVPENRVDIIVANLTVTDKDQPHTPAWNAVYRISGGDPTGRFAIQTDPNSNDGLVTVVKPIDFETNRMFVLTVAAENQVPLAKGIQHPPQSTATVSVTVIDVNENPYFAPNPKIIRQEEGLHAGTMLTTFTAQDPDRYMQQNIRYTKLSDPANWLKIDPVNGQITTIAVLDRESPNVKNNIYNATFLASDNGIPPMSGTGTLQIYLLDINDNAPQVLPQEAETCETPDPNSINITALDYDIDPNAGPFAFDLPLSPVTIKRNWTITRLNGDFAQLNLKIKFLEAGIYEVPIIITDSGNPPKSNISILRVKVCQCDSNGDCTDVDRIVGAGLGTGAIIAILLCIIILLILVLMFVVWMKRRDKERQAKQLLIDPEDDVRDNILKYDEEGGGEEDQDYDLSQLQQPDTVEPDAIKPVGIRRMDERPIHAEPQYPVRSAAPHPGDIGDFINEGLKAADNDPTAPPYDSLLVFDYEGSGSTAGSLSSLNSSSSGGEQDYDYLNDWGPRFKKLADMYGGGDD

How the values were obtained:
Assay in all cases: log2 fold change, soluble protein after heating vs DMSO (PISA); higher = thermal stabilisation; K562 cells, 10 uM, 30 min; active = over 0.2 and 3.5 SD of the protein, either way, in both replicates (recomputed)
idasanutlin = compound: COc1cc(C(=O)O)ccc1NC(=O)[C@@H]1N[C@@H](CC(C)(C)C)[C@](C#N)(c2ccc(Cl)cc2F)[C@H]1c1cccc(Cl)c1F [idasanutlin]
Outline: (§1)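 K562 cells at 2×10^6 cells/mL were treated with 10 μM compound for 30 min. Aliquots were heated for 3 min across 48°C-58°C, pooled, and extracted in PBS with 0.5% NP-40 at 4°C; soluble protein was the supernatant after 21,000xg for 90 min. Soluble protein was quantified by TMTpro 16plex LC-MS/MS with channel sums equalised, and reported as log2 fold change in thermal stability against DMSO controls, with values from duplicates.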

alisertib = compound: COc1cc(Nc2ncc3c(n2)-c2ccc(Cl)cc2C(c2c(F)cccc2OC)=NC3)ccc1C(=O)O [alisertib]
Outline: as §1

[1] = compound: COc1cc2nc(-c3cc(F)ccc3O)nc(N[C@@H]3CNC[C@H]3C(C)(C)O)c2cc1OC
Outline: as §1

[2] = compound: COc1cccc2cc(-c3nc([C@H]4CC[C@H](C(=O)O)CC4)n4ncnc(N)c34)[nH]c12
Outline: as §1

lapatinib = compound: CS(=O)(=O)CCNCc1ccc(-c2ccc3ncnc(Nc4ccc(OCc5cccc(F)c5)c(Cl)c4)c3c2)o1 [lapatinib]
Outline: as §1

pictilisib = compound: CS(=O)(=O)N1CCN(Cc2cc3nc(-c4cccc5[nH]ncc45)nc(N4CCOCC4)c3s2)CC1 [pictilisib]
Outline: as §1

filanesib = compound: CON(C)C(=O)N1N=C(c2cc(F)ccc2F)S[C@@]1(CCCN)c1ccccc1 [filanesib]
Outline: as §1

zotarolimus = compound: CO[C@H]1C[C@@H]2CC[C@@H](C)[C@@](O)(O2)C(=O)C(=O)N2CCCC[C@H]2C(=O)O[C@H]([C@H](C)C[C@@H]2CC[C@H](n3cnnn3)[C@H](OC)C2)CC(=O)[C@H](C)/C=C(\C)[C@@H](O)[C@@H](OC)C(=O)[C@H](C)C[C@H](C)/C=C/C=C/C=C/1C [zotarolimus]
Outline: as §1

gefitinib = compound: COc1cc2ncnc(Nc3ccc(F)c(Cl)c3)c2cc1OCCCN1CCOCC1 [gefitinib]
Outline: as §1

[3] = compound: COC1=CC=C(C=C1)CN2C=CC3=C2C=C(C=C3)C(=O)NO
Outline: as §1

Measured: log2 fold change

CEP85 (UniProt Q6P2H3)
inactive: idasanutlin 0.333 | alisertib -0.007 | [1] 0.188 | [2] 0.221 | lapatinib 0 | pictilisib -0.034

CHD1L (UniProt Q86WJ1)
inactive: filanesib 0.162 | pictilisib -0.322

CHD1 (UniProt O14646)
inactive: idasanutlin -0.041 | pictilisib 0.081

CDC42EP3 (UniProt Q9UKI2)
inactive: alisertib -0.188 | [2] 0.01

CHD5 (UniProt Q8TDI0)
inactive: filanesib 0.052 | zotarolimus 0.142 | idasanutlin 0.064 | alisertib 0.01 | [1] -0.009 | gefitinib -0.003 | [2] -0.195 | lapatinib -0.035 | pictilisib 0.054

CHCHD10 (UniProt Q8WYQ3)
inactive: [3] -0.008 | alisertib -0.023 | [1] 0.069 | gefitinib 0.089 | [2] 0.051 | lapatinib 0.094

CDK2AP1 (UniProt O14519)
inactive: filanesib -0.073 | idasanutlin -0.251 | alisertib -0.142 | [1] -0.044 | gefitinib -0.022 | [2] 0.074 | lapatinib 0.05 | pictilisib 0.029

CEP57 (UniProt Q86XR8)
inactive: filanesib 0.152 | zotarolimus 0.075 | alisertib -0.191 | gefitinib -0.23 | [2] -0.19 | pictilisib -0.175

CFL1 (UniProt E9PP50)
inactive: gefitinib -0.142 | pictilisib 0.105

CDKN1C (UniProt P49918)
inactive: filanesib -0.111 | alisertib -0.165 | [2] -0.408 | pictilisib 0.006

CERS6 isoform 2 (UniProt Q6ZMG9)
inactive: filanesib -0.028 | zotarolimus -0.049 | idasanutlin 0.123 | alisertib -0.144 | [1] -0.063 | gefitinib 0.006 | [2] 0.081 | lapatinib 0.012 | pictilisib -0.103

CHFR (UniProt Q96EP1)
inactive: [3] 0.014 | alisertib 0.26 | [1] 0.084 | [2] -0.271 | lapatinib 0.326

CENPQ (UniProt Q7L2Z9)
inactive: filanesib 0.038 | zotarolimus -0.312 | alisertib 0.037 | gefitinib 0.06 | [2] -0.135

2 consecutive entries already listed, quoted:
CHD1 (UniProt O14646)
inactive: idasanutlin -0.041 | pictilisib 0.081

CDC42EP3 (UniProt Q9UKI2)
inactive: alisertib -0.188 | [2] 0.01

Next results.

CDS1 (UniProt Q92903)
inactive: zotarolimus -0.249 | alisertib 0.213 | [2] -0.069

CEND1 (UniProt Q8N111)
inactive: filanesib -0.031 | idasanutlin 0.017 | [1] 0.108 | lapatinib -0.024

CFB (UniProt P00751)
inactive: filanesib 0.149 | zotarolimus -0.26 | alisertib 0.078 | gefitinib -0.027 | [2] 0.201 | pictilisib -0.319

CHIC1 (UniProt Q5VXU3)
inactive: filanesib 0.143 | idasanutlin 0.136 | alisertib 0 | [1] 0.113 | gefitinib 0.064 | [2] 0.138 | lapatinib -0.092 | pictilisib 0.018

CDKN2AIPNL (UniProt Q96HQ2)
inactive: gefitinib -0.043

CEBPG (UniProt P53567)
inactive: zotarolimus -0.158 | idasanutlin -0.055 | [1] -0.003 | gefitinib 0.103 | lapatinib 0.017 | pictilisib 0.238

CDR2L (UniProt Q86X02)
inactive: zotarolimus -0.077 | idasanutlin 0.034 | pictilisib 0.162

CHIC2 (UniProt Q9UKJ5)
inactive: filanesib 0.018 | zotarolimus -0.068 | idasanutlin -0.023 | alisertib 0.096 | [1] -0.146 | gefitinib -0.038 | [2] -0.069 | lapatinib -0.059 | pictilisib 0.19

CDC42SE2 (UniProt Q9NRR3)
inactive: filanesib -0.004 | zotarolimus -0.024 | idasanutlin 0.049 | alisertib -0.168 | [1] -0.073 | gefitinib -0.027 | [2] -0.151 | lapatinib -0.016

CEBPZOS (UniProt A8MTT3)
inactive: [3] 0.111 | idasanutlin -0.021 | alisertib -0.014 | [1] -0.085 | gefitinib 0.004 | [2] 0.098 | lapatinib -0.037 | pictilisib -0.045

CFAP47 (UniProt Q6ZTR5)
inactive: idasanutlin -0.496 | [1] 0.031 | lapatinib -0.106

CDH5 (UniProt P33151)
inactive: filanesib 0.298 | alisertib -0.146 | [2] 0.01

CENPV (UniProt Q7Z7K6)
inactive: filanesib 0.646 | zotarolimus 0.099 | [1] -0.134 | lapatinib 0.329 | pictilisib -0.029

CDCA8 (UniProt Q53HL2)
inactive: filanesib 0.032

CDH2 (UniProt P19022)
inactive: [3] -0.128 | [1] -0.236 | lapatinib -0.254 | pictilisib -1.28

CFAP58 (UniProt Q5T655)
inactive: alisertib -0.156 | [1] 0 | [2] 0.032 | lapatinib 0.001 | pictilisib 0.122

CELSR2 (UniProt Q9HCU4)
inactive: zotarolimus -0.139

CHMP2A (UniProt M0R1T5)
inactive: idasanutlin -0.359 | alisertib 0.417 | [1] 0.064 | [2] 0.258 | lapatinib 0.061

CDC42EP2 (UniProt O14613)
inactive: filanesib 0.17

CDC42EP4 (UniProt Q9H3Q1)
inactive: filanesib 0.02 | zotarolimus -0.187 | alisertib -0.055 | [1] -0.018 | gefitinib 0.038 | [2] 0.095 | lapatinib 0.033 | pictilisib 0.02
